Results on 54 sequences are retold here after publication PMC7819943, “Rice protein-binding microarrays: a tool to detect cis-acting elements near promoter regions in rice”.

By UniProt entry, the sequences of proteins in these tests, tags left out.
UniProt Q0JBA9, entry or part of it: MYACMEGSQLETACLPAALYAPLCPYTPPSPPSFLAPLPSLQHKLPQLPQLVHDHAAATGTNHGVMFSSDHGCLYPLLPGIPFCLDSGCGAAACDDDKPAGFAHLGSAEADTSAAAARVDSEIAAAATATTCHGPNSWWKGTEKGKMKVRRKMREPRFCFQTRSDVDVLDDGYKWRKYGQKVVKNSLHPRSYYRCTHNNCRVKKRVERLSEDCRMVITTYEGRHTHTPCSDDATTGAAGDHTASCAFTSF

The list shows a part of the results.

For the experiment, the target named is OsWRKY34 (Oryza sativa, UniProt Q0JBA9 1-250). The experiment in a line: protein-binding microarray (RPBM); PBS, 2% BSA, 51.3 ng/ul salmon testes DNA, 50 uM zinc acetate, 200 nM TF, 25 C, 1 h; high values mean tight binding. The following applies: protein: recombinant; tags: N-terminal polyhistidine and DsRed monomer fusion (pET32a); label: CyDye5-dUTP incorporated in the synthesized complementary strand; 3' TTTTT single-stranded linker to array surface; dsDNA, one strand shown. The procedure, abridged:
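Binding signal here means per-feature fluorescence intensity in arbitrary units. The values were read on an Axon 4000B scanner after a custom Agilent array, double-stranded by primer extension with Cy5-dUTP, was incubated with 200 nM protein at 25 °C for 1 h in PBS with 2% BSA, salmon testes DNA and 50 µM zinc acetate, then washed. The proteins were transcription factors with an N-terminal polyhistidine tag and DsRed, expressed in E. coli BL21-CodonPlus and purified on Ni–NTA.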
Turning to “ACCACCACCACCGCCGCCGCGCGGACCAACCAACCAATCACGGAGTCACCTAGTGCAG”, the binding signal was 11400 fluorescence intensity (a.u.).
Then “ACCCCACGTACACCCCATGCTTCGTGACCGTGTGAGCTCTCGGAGTCACCTAGTGCAG”, with 8020 fluorescence intensity (a.u.); and “AGGTGGTGTTTGGTTGGAGGGGCTAAAGTGGGGCTAAACTCGGAGTCACCTAGTGCAG”, with 20000 fluorescence intensity (a.u.).
Then “CACTGAGCCCGCATCGTCTCGTCTCCCTCTCCCTCTCCCACGGAGTCACCTAGTGCAG”, with 8430 fluorescence intensity (a.u.); and “GTCTATGGTTCTCGCGTGGTGCCGAGCCGCGTCCCTTTTTCGGAGTCACCTAGTGCAG”, with 12400 fluorescence intensity (a.u.).
“GTTCTTTTCTTTAGCTCCAAAATACAAATTCCTCATTTTTCGGAGTCACCTAGTGCAG”: the binding signal was 11000 fluorescence intensity (a.u.).
Then “CCACCCACCACTTCTTCTCTACCTAGCTCTCTCTTTCTCGCGGAGTCACCTAGTGCAG”, with 8210 fluorescence intensity (a.u.); and “GTTTTACACTATTCACGTTCAACGTTTGACCGTTCGTCTTCGGAGTCACCTAGTGCAG”, with 13400 fluorescence intensity (a.u.).
Then “TAGGGTTAGGGTTTGCTCCTCCTCCTCTTCCCTCTACACGCGGAGTCACCTAGTGCAG”, with 8990 fluorescence intensity (a.u.); and “GCCTTTCTGTTTCAGTAGTCCTCTCTTTGACGCTTTACTCCGGAGTCACCTAGTGCAG”, with 11600 fluorescence intensity (a.u.); and “GGTTTTCCATGCCCTCTATCGTTCCAAATTCTCTTAAGATCGGAGTCACCTAGTGCAG”, with 8100 fluorescence intensity (a.u.).
Take “CCAACAAATTTTGTGTGACTACAACCTGCCTACAACCTGTCGGAGTCACCTAGTGCAG”: the binding signal is 8790 fluorescence intensity (a.u.).
With “TTGAACTGTATTGGTTTTGGTTAGTCTTCTAGTTTGTTATCGGAGTCACCTAGTGCAG” the figure was 8100 fluorescence intensity (a.u.); with “AGTTGTTGCCTGCACTACACAGCTGATGCACTGCCGGTTCCGGAGTCACCTAGTGCAG”, 8640 fluorescence intensity (a.u.); with “GCACCCTACCGTAAAAAGTCAACAGTAGCCATTCCACACACGGAGTCACCTAGTGCAG”, 9880 fluorescence intensity (a.u.).
Then “GGTGTAGGTGCTGTTACTATTGGAGACTAGACTCAATGTGCGGAGTCACCTAGTGCAG”, with 8420 fluorescence intensity (a.u.); and “TATATTTTCCATCCCTTGTACGCATATATGCCCTTTAGGCCGGAGTCACCTAGTGCAG”, with 9070 fluorescence intensity (a.u.); and “GACAACTTGAAATATATATTTTTATTCTCGTTTAGGACTCCGGAGTCACCTAGTGCAG”, with 8590 fluorescence intensity (a.u.).
Then “GCTCTTCGACGTGAAGCCGCTCCAGCACCTGCAGCTCCCGCGGAGTCACCTAGTGCAG”, with 8210 fluorescence intensity (a.u.).
“CTATCTTTCGCTGTTGCTGTTTGAGAAGTGTTTTAATTATCGGAGTCACCTAGTGCAG”: the binding signal was 8570 fluorescence intensity (a.u.).
Then “GTTTGTTCATCGGCCAGCTAGCTATACCTGCAGGTAGCTCCGGAGTCACCTAGTGCAG”, with 8460 fluorescence intensity (a.u.).
Turning to “TGGTCCATTTCCAGCGTGAAGCTGGTCGTACTCGTAGTCGCGGAGTCACCTAGTGCAG”, the binding signal is 11400 fluorescence intensity (a.u.).
With “GCATTTTTTTTTACTCTGGCACGGTCTCCGAGATGCTACTCGGAGTCACCTAGTGCAG” the figure was 10300 fluorescence intensity (a.u.); with “GATATCCCCTTAGAGTTTAATCCACTCTCGAGCTTAATTCCGGAGTCACCTAGTGCAG”, 8760 fluorescence intensity (a.u.).
With “AGGGGTTCGCTTTTCTAGATTCAGTCTGTCAGCGGCGACGCGGAGTCACCTAGTGCAG” the figure was 9570 fluorescence intensity (a.u.); with “GTTGGATATAGTGGTTTATGCGTAGTTTTGCTCCACAGGTCGGAGTCACCTAGTGCAG”, 9410 fluorescence intensity (a.u.).
Then “AACATGTACCTTCGTTTTCTTTTAGCCTCACATGATAGTACGGAGTCACCTAGTGCAG”, with 8840 fluorescence intensity (a.u.).
On to “ATGTGCACTTATGCATCTATAATCTCTGTCGTGTATTTTTCGGAGTCACCTAGTGCAG”, for which the binding signal was 10100 fluorescence intensity (a.u.).
With “ATATGTCAAGTTTGGTGGATATAGTTGTTTGGCCTTTTACCGGAGTCACCTAGTGCAG” the figure was 11700 fluorescence intensity (a.u.); with “ATGCCTTCCATTGAGCAGTTCGGTGTTCCGCCGTTGACTTCGGAGTCACCTAGTGCAG”, 13500 fluorescence intensity (a.u.).
With “ACCCTGTCCCTGTCCTGTAGCCATCACCAGTCTTATTATTCGGAGTCACCTAGTGCAG” the figure was 13100 fluorescence intensity (a.u.).
Then “ATATAGACGGTTACTTTTTTTTGTGTAGTGCTGGAGAAATCGGAGTCACCTAGTGCAG”, with 8810 fluorescence intensity (a.u.); and “AATGGCGACCCAAAACCGGGGTACTGTATCGAAATTCAAACGGAGTCACCTAGTGCAG”, with 8450 fluorescence intensity (a.u.); and “AGATTAATTTCATTTCTATCTTCCTGTCTAACCTCAGTTCCGGAGTCACCTAGTGCAG”, with 8570 fluorescence intensity (a.u.).
For “CCTCTGTTCCAGCCCATACACCCGACCTGCTGAGATACAACGGAGTCACCTAGTGCAG”, the binding signal is 8370 fluorescence intensity (a.u.).
Then “AATTACACTTTTTTGGATGTCCTGTAACAAATTTTGCGGACGGAGTCACCTAGTGCAG”, with 8220 fluorescence intensity (a.u.); and “CTCCCAACCGAAGCGGCCTATATTAGCGTGTAATTAATTACGGAGTCACCTAGTGCAG”, with 9180 fluorescence intensity (a.u.).
With “AAATTAACCACACTCGCGCCGCCATTCTCTTCTTCTTCTTCGGAGTCACCTAGTGCAG” the figure was 20600 fluorescence intensity (a.u.).
Consider “TAAGCTAAAAATCCTAGGTATTTTTTTATATTCTTAGCTACGGAGTCACCTAGTGCAG”, for which the binding signal is 8580 fluorescence intensity (a.u.).
With “TCCCTGCCGGTACTGTGCAAGTACTTTTTTAATTTTTTTTCGGAGTCACCTAGTGCAG” the figure was 8300 fluorescence intensity (a.u.); with “AAGTGAGACATGCCACCCACGCGTCCATCTAATCTAATCTCGGAGTCACCTAGTGCAG”, 8040 fluorescence intensity (a.u.); with “ACGTTTTTTTTTCTCCAGGTTTTTTTTGGATCGGACTCTTCGGAGTCACCTAGTGCAG”, 8880 fluorescence intensity (a.u.).
With “TCCCTCTCACGCCGCCGCCGCCTCGCCGCTTTCCTCTCTCCGGAGTCACCTAGTGCAG” the figure was 8610 fluorescence intensity (a.u.); with “ATACACACAGGCACACGTCCCACTCACTCGCTGCCTGCTCCGGAGTCACCTAGTGCAG”, 9200 fluorescence intensity (a.u.); with “CAGTTTTTACTACTCTCGTGTCAGTCCTGCCGCTCGTTTCCGGAGTCACCTAGTGCAG”, 10100 fluorescence intensity (a.u.).
Then “GCTTGTATTCTCTGCCGAAATCTTAAAATCTGCTGTTTCCCGGAGTCACCTAGTGCAG”, with 10900 fluorescence intensity (a.u.); and “TCTGCTTACCCTTCACGACGGCCACCTGTCACCATCATAGCGGAGTCACCTAGTGCAG”, with 10500 fluorescence intensity (a.u.).
As to “CGTTCCGCGAGGTCACCGTCCATCTCGACGGCGACGTCGTCGGAGTCACCTAGTGCAG”, the binding signal is 12400 fluorescence intensity (a.u.).
Then “GTCTTCAGTGTAGCACTCGTTGTAATTGGCATCTTGTATGCGGAGTCACCTAGTGCAG”, with 11300 fluorescence intensity (a.u.); and “CGAAAGCCTTATTCTGCACACTGATCTTCCTAATTATTTTCGGAGTCACCTAGTGCAG”, with 9320 fluorescence intensity (a.u.).
With “TGTTTCTTTTTCCGCGCGCACGTTTCCCAAACTACTAAACCGGAGTCACCTAGTGCAG” the figure was 14400 fluorescence intensity (a.u.); with “AGTTATCTCTTAATTGTATTCTAGTCTCTTTTCGAGTTGCCGGAGTCACCTAGTGCAG”, 9490 fluorescence intensity (a.u.); with “TGACTTCCTTGCTGCCGGCCGAGTGTTTTTCCCTCCTTTCCGGAGTCACCTAGTGCAG”, 14300 fluorescence intensity (a.u.).
For “ATTGCAAGTCATTTTTGTTTTGTACTAAGTCAAATTTACACGGAGTCACCTAGTGCAG”, the binding signal is 9400 fluorescence intensity (a.u.).
